The source of these data is patent US20040248767A1 (AUTOGEN RESEARCH, published 2004).

The target in test [1] is T1, Serum amyloid A (SAA) purified from human sera / human plasma (Trace Scientific) (human) (UniProt P0DJI8).
T1 sequence (looked up): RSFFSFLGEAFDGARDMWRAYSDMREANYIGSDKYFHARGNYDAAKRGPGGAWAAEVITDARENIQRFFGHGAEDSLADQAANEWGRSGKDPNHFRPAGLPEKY
Nature of the test: SPR (Biacore J), SAA on chip, GST-FLtanis injected. For orientation: SPR reads the build-up and loss of mass on a sensor chip optically.

Test [2] has as its target T1, Serum amyloid A (SAA) purified from human sera / human plasma (Trace Scientific) (human). Description: SPR (Biacore J), SAA on CM5 chip, GST-FLtanis injected.
Test [3] shares this target. Description: SPR (Biacore J), human plasma SAA on CM5 chip, GST-full-length Tanis injected.
The target is the same in test [4]. Description: SPR (Biacore J), SAA on CM5 chip, GST-fused fragment injected.

Results are given in words; binding and its absence hold for the method and conditions named. Some binding calls cover weakened binding; strength is not graded here. Tags and fused reporters may be left off the sequences shown.

B1: GST-full-length Tanis (protein, not shown: a dimerising Fc or GST; small tags and cut ends)
chain: MESAEEPLPARPALETEGLRFLHVTVGSLLASYGWYVLFSCILLYIVIQKLSVRLRVLRQRQLDQADAVLEPDAVVKRQEALAAARLRMQEDLNAQVEKHKEKLRQLEEEKRRQKIEMWDSMQEGRSYRRNPGRPQEEDGPGPSTSSSVTRKGKSDKKPLRGNGYNPLTGEGGGTCAWRPGRRGPSSGG
With B1, the binding result in test [1], in test [2] and in test [3] was “binds” throughout.

B2: GST-fused C tanis (117-189aa) (protein, not shown: a dimerising Fc or GST; small tags and cut ends)
chain: EMWDSMQEGRSYRRNPGRPQEEDGPGPSTSSSVTRKGKSDKKPLRGNGYNPLTGEGGGTCAWRPGRRGPSSGG
As for B2, the binding entry in test [4] was “binds”.
